Reference: PMC3776929
Results are given in words; binding and its absence hold for the method and conditions named. In cells and extracts the contact can be indirect. Some binding calls cover weakened binding; strength is not graded here.

By UniProt entry, the sequences of proteins in these tests, tags left out.
UniProt Q05471: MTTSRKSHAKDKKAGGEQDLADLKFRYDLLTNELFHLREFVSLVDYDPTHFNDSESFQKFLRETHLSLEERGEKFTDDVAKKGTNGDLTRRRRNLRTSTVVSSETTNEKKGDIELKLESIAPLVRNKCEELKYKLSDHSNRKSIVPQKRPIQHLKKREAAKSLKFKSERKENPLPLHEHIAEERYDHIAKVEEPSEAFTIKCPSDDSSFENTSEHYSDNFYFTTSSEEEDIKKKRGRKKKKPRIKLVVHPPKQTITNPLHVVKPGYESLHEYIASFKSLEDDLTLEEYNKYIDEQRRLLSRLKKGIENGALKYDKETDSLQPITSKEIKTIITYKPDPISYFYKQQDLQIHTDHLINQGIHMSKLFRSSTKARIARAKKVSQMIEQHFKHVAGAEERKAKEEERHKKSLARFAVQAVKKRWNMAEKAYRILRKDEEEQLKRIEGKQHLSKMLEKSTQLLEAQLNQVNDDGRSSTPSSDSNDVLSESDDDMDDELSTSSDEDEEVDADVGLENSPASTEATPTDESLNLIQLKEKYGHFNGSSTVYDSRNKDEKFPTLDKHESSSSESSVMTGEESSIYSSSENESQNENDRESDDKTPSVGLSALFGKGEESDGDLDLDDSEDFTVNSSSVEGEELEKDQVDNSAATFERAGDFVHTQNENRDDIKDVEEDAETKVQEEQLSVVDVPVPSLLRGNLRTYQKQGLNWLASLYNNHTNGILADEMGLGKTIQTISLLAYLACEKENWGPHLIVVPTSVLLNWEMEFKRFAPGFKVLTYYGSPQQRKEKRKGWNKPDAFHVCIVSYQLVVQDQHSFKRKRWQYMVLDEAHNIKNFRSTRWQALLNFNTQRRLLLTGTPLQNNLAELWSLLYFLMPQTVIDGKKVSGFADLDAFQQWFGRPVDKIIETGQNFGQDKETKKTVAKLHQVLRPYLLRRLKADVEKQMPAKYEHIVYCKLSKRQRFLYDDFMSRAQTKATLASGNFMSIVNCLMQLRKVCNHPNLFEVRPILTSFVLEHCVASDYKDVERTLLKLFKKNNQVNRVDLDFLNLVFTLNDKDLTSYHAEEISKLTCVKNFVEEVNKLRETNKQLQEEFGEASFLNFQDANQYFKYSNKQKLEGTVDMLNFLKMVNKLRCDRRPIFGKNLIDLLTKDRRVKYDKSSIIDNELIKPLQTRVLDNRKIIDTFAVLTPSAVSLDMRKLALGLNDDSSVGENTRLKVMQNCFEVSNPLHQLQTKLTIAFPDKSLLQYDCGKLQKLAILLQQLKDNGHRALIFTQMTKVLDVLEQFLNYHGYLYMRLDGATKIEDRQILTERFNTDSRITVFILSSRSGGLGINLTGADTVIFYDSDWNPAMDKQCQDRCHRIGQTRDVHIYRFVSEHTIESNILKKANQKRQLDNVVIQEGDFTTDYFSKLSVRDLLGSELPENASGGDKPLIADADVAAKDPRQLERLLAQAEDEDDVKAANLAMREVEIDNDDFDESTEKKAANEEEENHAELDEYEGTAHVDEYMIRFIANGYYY

B1: Bdf1 (protein, UniProt P35817 1-686)
chain: MTDITPVQNDVDVNGNNVNDDVSSNLKRPIDQGDPSNGLAEEENPANNQLHLKKARLDGDALTSSPAGLAENGIEGATLAANGENGYNATGSGAEDEQQGLKKEEGGQGTKQEDLDENSKQELPMEVPKEPAPAPPPEPDMNNLPQNPIPKHQQKHALLAIKAVKRLKDARPFLQPVDPVKLDIPFYFNYIKRPMDLSTIERKLNVGAYEVPEQITEDFNLMVNNSIKFNGPNAGISQMARNIQASFEKHMLNMPAKDAPPVIAKGRRSSAQEDAPIVIRRAQTHNGRPKRTIHPPKSKDIYPYESKKPKSKRLQQAMKFCQSVLKELMAKKHASYNYPFLEPVDPVSMNLPTYFDYVKEPMDLGTIAKKLNDWQYQTMEDFERDVRLVFKNCYTFNPDGTIVNMMGHRLEEVFNSKWADRPNLDDYDSDEDSRTQGDYDDYESEYSESDIDETIITNPAIQYLEEQLARMKVELQQLKKQELEKIRKERRLARGSKKRGKRSKGRSGSKNASSKGRRDKKNKLKTVVTYDMKRIITERINDLPTSKLERAIDIIKKSMPNISEDDEVELDLDTLDNHTILTLYNTFFRQYESSSGASNGLDGTSGVTRDASSLSPTSAGSRKRRSKALSQEEQSRQIEKIKNKLAILDSASPLSQNGSPGQIQSAAHNGFSSSSDDDVSSESEEE
B2: Arp4 (protein, UniProt P80428 1-489)
chain: MSNAALQVYGGDEVSAVVIDPGSYTTNIGYSGSDFPQSILPSVYGKYTADEGNKKIFSEQSIGIPRKDYELKPIIENGLVIDWDTAQEQWQWALQNELYLNSNSGIPALLTEPVWNSTENRKKSLEVLLEGMQFEACYLAPTSTCVSFAAGRPNCLVVDIGHDTCSVSPIVDGMTLSKSTRRNFIAGKFINHLIKKALEPKEIIPLFAIKQRKPEFIKKTFDYEVDKSLYDYANNRGFFQECKETLCHICPTKTLEETKTELSSTAKRSIESPWNEEIVFDNETRYGFAEELFLPKEDDIPANWPRSNSGVVKTWRNDYVPLKRTKPSGVNKSDKKVTPTEEKEQEAVSKSTSPAANSADTPNETGKRPLEEEKPPKENNELIGLADLVYSSIMSSDVDLRATLAHNVVLTGGTSSIPGLSDRLMTELNKILPSLKFRILTTGHTIERQYQSWLGGSILTSLGTFHQLWVGKKEYEEVGVERLLNDRFR
B3: Yaf9 (protein, UniProt P53930 1-226)
chain: MAPTISKRIKTLSVSRPIIYGNTAKKMGSVKPPNAPAEHTHLWTIFVRGPQNEDISYFIKKVVFKLHDTYPNPVRSIEAPPFELTETGWGEFDINIKVYFVEEANEKVLNFYHRLRLHPYANPVPNSDNGNEQNTTDHNSKDAEVSSVYFDEIVFNEPNEEFFKILMSRPGNLLPSNKTDDCVYSKQLEQEEIDRIEIGIEKVDKEIDELKQKLENLVKQEAINGS

Each binder was assayed against Swr1, FLAG-tagged catalytic subunit of the SWR1 complex (S. cerevisiae) (UniProt Q05471) (assay: co-IP; FLAG affinity purification of SWR1 (or a subcomplex) from S. cerevisiae, eluted with 3× FLAG peptide; SDS-PAGE (4%-12% Bis-Tris), Coomassie or SYPRO Orange stain; band intensities normalised for protein size for the stoichiometry).
With B1 the binding was “binds”.
B2 was tested, and the binding was “binds”.
For B3, the binding was “binds”.
